Results published in article PMC8387526 (EJNMMI Radiopharmacy and Chemistry, 2021).
For part of these data: Some peptides are written in HELM: one residue between dots, names in brackets for other building blocks, links after the first $.

Legend:
[1] = general procedure: Fmoc solid-phase peptide synthesis; Rink amide ChemMatrix (0.50 mmol/g); 2-CT resin for protected fragments; TBTU, HOBt or HOAt, DIPEA; details: for isolated mass / isolated yield: 2 TFA
[2] = general procedure: Fmoc solid-phase peptide synthesis; Rink amide ChemMatrix; TBTU, HOBt or HOAt, DIPEA; details: whole synthesis
peptide synthesis = details: coupling step, referred to 18, 2TFA
[3] = general procedure: Fmoc solid-phase peptide synthesis; 2-CT resin; TBTU, HOBt or HOAt, DIPEA; details: whole synthesis, TFA salt
[4] = whole synthesis, scale 25.5 µmol
[5] = whole synthesis, scale 37.5 µmol
[6] = whole synthesis, scale 0.13 mmol
[7] = whole synthesis, scale 0.13 mmol, run 1
[8] = whole synthesis, scale 0.30 mmol

**Q.** With “H-L-His-Aib-L-Glu-Gly-L-Thr-L-(α-Me)Phe(2-F)-L-Thr-L-Ser-L-Asp-NH2” as the substance, how does the step yield ([1]; late stage modification step, TFA salt) read?
**A.** Its step yield is 4.82%.

**Q.** For “H-L-His-Aib-L-Glu-Gly-L-Thr-L-(α-Me)Phe(2-F)-L-Thr-L-Ser-L-Asp-L-Val-L-Dap(SiFA)-NH2”, which isolated mass [1, 4] is on record?
**A.** Its isolated mass is 8.40 mg.

**Q.** And the isolated yield [1, 4]?
**A.** Its isolated yield is 21.7%.

**Q.** With “PEPTIDE1{[ac].G.Q.A.A.K.E.F.I.A.W.L.V.K.G.R.[am]}$$$$V2.0” as the substance, how does the isolated mass ([2]; scale 93.3 µmol, 3 TFA) read?
**A.** The isolated mass was 10.2 mg.

**Q.** And the isolated yield ([2]; scale 93.3 µmol, 3 TFA)?
**A.** Its isolated yield is 5.32%.

**Q.** Which results are given for “PEPTIDE1{H.[Aib].E.G.T.[aMePhe2F].T.S.D.[BIP2Et4OMe].[homoPhe].[am]}$$$$V2.0”?
**A.** final HPLC purity ([1]; coupling step, RP-HPLC, TFA salt): 95%; outcome ([1]; whole synthesis, TFA salt): 1 could not be obtained by a linear reaction protocol; step yield (peptide synthesis): 16.1% referred to 18%

**Q.** Which isolated mass [1, 5] does the source give for “H-L-His-Aib-L-Glu-Gly-L-Thr-L-(α-Me)Phe-L-Thr-L-Ser-L-Asp-L-Dap(SiFA)-L-homoPhe-NH2” here?
**A.** The isolated mass was 2.70 mg.

**Q.** And the isolated yield [1, 5]?
**A.** Its isolated yield is 4.16%.

**Q.** What does the source list for “H-L-His-Aib-L-Glu-Gly-L-Thr-L-(α-Me)Phe(2-F)-L-Thr-L-Ser-L-Asp-O2Oc-L/D-Dap(SiFA)-L-Leu-L-Glu-NH2 (12/13)”?
**A.** difficulty met ([1]; whole synthesis, TFA salt): Racemization occurred during the coupling of Fmoc-L-Dap(Dde)-OH; isolated mass [1, 6]: 2.38 mg; isolated yield [1, 6]: 3.62%

**Q.** For “H-L-His-Aib-L-Glu-Gly-L-Thr-L-(α-Me)Phe(2-F)-L-Thr-L-Ser-L-Asp-L-Val-L-Ser-L-Ser-L-Dap(SiFA)- L-Leu-L-Glu-NH2”, which isolated mass ([2]; scale 0.13 mmol, 2 TFA) is on record?
**A.** Its isolated mass is 22.2 mg.

**Q.** And the isolated yield ([2]; scale 0.13 mmol, 2 TFA)?
**A.** The isolated yield was 8.12%.

**Q.** Which results are given for “H-L-His-Aib-L-Glu-Gly-L-Thr-L-(α-Me)Phe(2-F)-L-Thr-L-Ser-L-Asp-O2Oc-L/D-Dap(SiFA)-L-Leu-L-Glu-NH2 (12/13) [12]”?
**A.** difficulty met ([1]; whole synthesis, TFA salt): Racemization occurred during the coupling of Fmoc-L-Dap(Dde)-OH; isolated mass [1, 7]: 1.41 mg; isolated yield [1, 7]: 2.14%

**Q.** For “H-L-His-Aib-L-Glu-Gly-L-Thr-L-(α-Me)Phe-L-Thr-L-Ser-L-Asp-L-Phe(4-I)-L-homoPhe-NH2”, which isolated mass [1, 8] is on record?
**A.** The isolated mass was 4.47 mg.

**Q.** What about the isolated yield [1, 8] of the same substance?
**A.** Its isolated yield is 0.90%.

**Q.** With “H-L-His-Aib-L-Glu-Gly-L-Thr-L-(α-Me)Phe(2-F)-L-Thr-L-Ser-L-Asp-L-Dap(SiFA)-L-homoPhe-NH2” as the substance, how does the isolated mass [1, 5] read?
**A.** The isolated mass was 5.40 mg.

**Q.** What about the isolated yield [1, 5] of the same substance?
**A.** Its isolated yield is 8.24%.

**Q.** For “Boc-L-His(Boc)-Aib-L-Glu(OtBu)-Gly-L-Thr(tBu)-L-(α-Me)Phe(2-F)-L-Thr(tBu)-L-Ser(tBu)-L-Asp(OtBu)-OH”, which crude mass ([3]; scale 1.73 mmol) is on record?
**A.** Its crude mass is 2720 mg.

**Q.** Which crude mass ([3]; scale 0.31 mmol) does the source give for “Fmoc-L-His(Trt)-Aib-L-Glu(OtBu)-Gly-L-Thr(tBu)-L-(α-Me)Phe-L-Thr(tBu)-L-Ser(tBu)-L-Asp(OtBu)-OH” here?
**A.** Its crude mass is 545 mg.

**Q.** For “Fmoc-L-His(Trt)-Aib-L-Glu(OtBu)-Gly-L-Thr(tBu)-L-(α-Me)Phe(2-F)-L-Thr(tBu)-L-Ser(tBu)-L-Asp(OtBu)-OH”, which crude mass ([3]; scale 0.21 mmol) is on record?
**A.** The crude mass was 162 mg.

**Q.** What does the source list for “H-L-His-Aib-L-Glu-Gly-L-Thr-L-(α-Me)Phe(2-F)-L-Thr-L-Ser-L-Asp-L-Val-L-homoPhe-L-Ser-L-Dap(SiFA)-L-Leu-L-Glu-NH2”?
**A.** isolated mass ([2]; scale 0.13 mmol, 2 TFA): 17.2 mg; isolated yield ([2]; scale 0.13 mmol, 2 TFA): 6.08%
